Results on 59 compounds are retold here after PubChem BioAssay AID2685 (National Center for Advancing Translational Sciences (NCATS), 2010).

A short description of this assay: qHTS Assay for Lipid Storage Modulators in Drosophila S3 Cells.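 As to cell number change: cells counted by Cell Tracker Red CMTPX staining in the red channel.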 The following applies: BODIPY lipid droplet fluorescence, 18-24 h; for cell number change: measured here: cell count max response, cells fed with added oleic acid. A digest of the protocol: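 Drosophila S3 cells got compounds at several concentrations plus oleic acid (400 uM solution). Laser-scanning cytometry with 488 nm excitation read lipid droplets at 500-530 nm and cells at 575-640 nm. Percent activity was relative to 20 uM Triacsin C.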

[1] abbreviates: measured here: lipid fluorescence (Fed channel) AC50, cells fed with added oleic acid.
Setting [2] is: measured here: cell number channel AC50, cells fed with added oleic acid.

Some of the results follow. The main result of the screen is listed elsewhere. These columns were measured beside it and carry no call. The list favours compounds with an active or inconclusive main result. Words in brackets tell the shape of the fitted curve; partial curves, single points and poor fits give uncertain potencies.

As for `CCOC(=O)c1c(C)oc2c1c(C(c1cccnc1)N1CCOCC1)c(O)c1ccccc12` (stereo not given), the cell number change is -21.6%. The AC50 under setting [1] is 18.4 µM [rising, single point].
With `COc1ccccc1NC(=O)C(C)OC(=O)c1cccc(-n2cnnn2)c1` (stereo not given), the cell number change is 73.5%. For the same compound, under setting [2], the concentration at half-maximal activity (AC50) is 10.3 µM [rising, partial curve].
In the case of `O=C(NCc1ccc(N2CCCC2=O)cc1)c1cc(COc2c(F)cccc2F)on1`, the cell number change was -20.5%.
As for `OCCN1C2=NCCCN2c2ccccc21`, the cell number change is -18.6%.
For the compound `O=C(NCc1ccccn1)c1c(Cl)cccc1Cl`, the cell number change was -0.912%. Moreover, the AC50 under setting [1] was 0.00461 µM [falling, full curve, poor fit].
Take `O=C(NCC1CCCO1)c1cc([N+](=O)[O-])ccc1Cl` (stereo not given): the cell number change was -63.2%. Also, the half-maximal activity concentration (AC50) under setting [2] is 5.8 µM [falling, full curve]. Also, under setting [1], the AC50 is 9.2 µM [falling, partial curve].
In the case of `CC(=O)c1ccccc1OCc1ccc(S(=O)(=O)Cc2ccccc2)cc1`, the cell number change stood at 1.17%. Besides, under setting [1], the AC50 was 29.1 µM [falling, single point].
Take `O=C(Nc1nccs1)c1c(O)c2cccc3c2n(c1=O)CCC3`: the cell number change was -0.419%. Besides, the concentration at half-maximal activity (AC50) under setting [1] was 16.4 µM [rising, single point].
For `COc1cc(/C=C/c2ccc3cccc([N+](=O)[O-])c3n2)ccc1OCC(=O)O`, the cell number change amounted to 57.4%. Further, under setting [2], the AC50 is 29.1 µM [rising, single point]. Further, under setting [1], the half-maximal activity concentration (AC50) is 5.8 µM [falling, single point].
Consider `O=C(NCc1ccccc1)c1ccc(C(=O)N(C2CCCCC2)C2CCCCC2)cc1`, for which the cell number change was -64.1%. Besides, the AC50 under setting [2] is 29.1 µM [falling, single point]. Further, the half-maximal activity concentration (AC50) under setting [1] is 1.3 µM [rising, full curve, poor fit].
Consider `CN(CCO)c1ccc([N+](=O)[O-])cc1C(=O)O`, for which the cell number change is -96.5%. In addition, the concentration at half-maximal activity (AC50) under setting [2] is 29.1 µM [falling, single point].
Consider `Cc1cc(=O)oc2cc(NC(=O)C3CC(=O)N(Cc4ccccc4)C3)ccc12` (stereo not given), for which the cell number change was -25%. Also, under setting [1], the AC50 is 18.4 µM [rising, single point].
On to `C=CCN(c1ccc(F)cc1)S(=O)(=O)c1cc(C(=O)NC2CCC(O)CC2)ccc1Cl` (stereo not given), for which the cell number change is -2.33%.
In the case of `CCOC(=O)c1sc(-c2ccccc2)cc1NC(=O)Nc1ccc([N+](=O)[O-])cc1`, the cell number change was 33.3%. The AC50 under setting [2] was 32.6 µM [rising, single point].
`Nc1nc2c(ncn2COCCO)c(=O)[nH]1`: the cell number change is 17.6%. Also, the AC50 under setting [1] was 29.1 µM [falling, single point].
Take `COc1ccc2c(c1)C1(C)CC(C)(C)N2C(=O)N1c1ccccc1` (stereo not given): the cell number change is -39%. For the same compound, the half-maximal activity concentration (AC50) under setting [2] is 8.2 µM [falling, partial curve]. Further, the AC50 under setting [1] is 18.4 µM [falling, partial curve].
For `Cc1oc(-c2ccc(Cl)cc2)nc1CSCC(=O)NC1CCN(Cc2ccccc2)CC1`, the cell number change is -0.989%. For the same compound, under setting [2], the AC50 was 0.0411 µM [rising, full curve, poor fit]. Also, the AC50 under setting [1] is 29.1 µM [falling, single point].
On to `Cc1cccc(C(=O)Nc2ccc(C(=O)N3CCCCC3C)cc2)c1` (stereo not given), for which the cell number change was -19.8%.
As for `Cc1ccc(OCC(=O)N/N=C/c2cccc3cccnc23)cc1`, the cell number change is -28.2%. Besides, the AC50 under setting [1] is 7.31 µM [falling, partial curve, poor fit].
Take `CS(=O)(=O)c1ccc(-n2c(=O)n(Cc3ccccc3)c(=O)c3[nH]cnc32)cc1`: the cell number change came out at 23.5%. For the same compound, the AC50 under setting [1] is 20.6 µM [rising, single point].
Consider `CCC(CCC(=O)Nc1nncs1)C(=O)O` (stereo not given), for which the cell number change was -71.9%. Moreover, the AC50 under setting [2] is 29.1 µM [falling, single point]. For the same compound, the AC50 under setting [1] was 20.6 µM [falling, partial curve].
With `O=C(CSc1nc(=O)n2cc(Cl)ccc2n1)Nc1ccc2c(c1)OCCO2`, the half-maximal activity concentration (AC50) under setting [1] is 18.4 µM [rising, single point].
Consider `CCCP(=O)(CC(=O)O)c1ccccc1` (stereo not given), for which the cell number change was -29.6%. For the same compound, the concentration at half-maximal activity (AC50) under setting [2] is 3.66 µM [falling, full curve, poor fit].
For the compound `FC(F)(F)c1cc(-c2ccccc2)nc(-n2cncn2)n1`, the concentration at half-maximal activity (AC50) by setting is: under setting [2], 0.461 µM [rising, full curve]; under setting [1], 0.58 µM [rising, full curve].
For the compound `COc1cc(NC(=O)Cn2nnc(-c3ccccc3N)n2)cc(OC)c1`, the cell number change is 24.4%. Further, the AC50 under setting [2] was 4.11 µM [rising, full curve, poor fit]. In addition, the AC50 under setting [1] was 7.31 µM [rising, partial curve].
Take `CCN(CC)CCCNCC(=O)Nc1ccc2c(c1)CCC2`: the cell number change is -98.6%.
As to `COc1ccc(NC(=O)c2c(C)noc2C(C)C)cc1S(=O)(=O)N1CCCCC1`, the cell number change worked out at 5.76%. Under setting [1], the AC50 is 20.6 µM [rising, single point].
For `COc1ccc(-n2c(COc3ccccc3)nnc2SCC(N)=O)cc1`, the AC50 was 0.58 µM [falling, full curve, poor fit] under setting [2] and 0.651 µM [falling, partial curve, poor fit] under setting [1].
With `O=C(CSc1nc2ccccc2[nH]1)Nc1nc(-c2ccc(Br)cc2)cs1`, the cell number change is -30.5%. Also, the AC50 under setting [2] was 29.1 µM [falling, single point]. Besides, the AC50 under setting [1] was 6.51 µM [rising, partial curve, poor fit].
For the compound `CC1CN(c2ccc([N+](=O)[O-])c(NCCOc3ccccc3)c2)CC(C)N1` (stereo not given), the cell number change was -32.5%. Under setting [2], the AC50 was 18.4 µM [falling, partial curve, poor fit].
As for `Cc1cc(C)n2nc(C(=O)OCC(=O)NNC(=O)c3ccccc3)nc2n1`, the cell number change was -12.3%. The half-maximal activity concentration (AC50) under setting [1] is 10.3 µM [rising, partial curve].
For `CC1Sc2n(c3ccccc3[n+]2C)N=C1c1ccccc1` (stereo not given), the cell number change is -21.8%. The AC50 under setting [1] was 18.4 µM [falling, single point].
Turning to `Nc1[nH]c(=O)[nH]c(=O)c1N=Nc1ccc(C(=O)O)cc1`, the cell number change was -10%. The AC50 under setting [1] was 4.11 µM [rising, single point].
Consider `Cc1ccnc(NC(=O)CCC(=O)N(CC(=O)NCc2ccc(F)cc2)c2ccc(F)cc2)c1`, for which the cell number change is 24.4%.
With `COC(=O)c1cc(NC(=O)CSc2nnc(CN3CCOCC3)n2C)ccc1Cl`, the cell number change is -5.81%. Under setting [1], the AC50 is 6.51 µM [rising, single point].
With `CC(C)OC(=S)N/C(=N\S(=O)(=O)c1ccccc1)c1ccccc1`, the AC50 under setting [2] was 4.61 µM [falling, single point].
As to `C=CCn1cc(/C=C2/NC(=O)NC2=O)c2ccccc21`, the half-maximal activity concentration (AC50) under setting [2] was 0.164 µM [rising, full curve, poor fit].
In the case of `COC(=O)c1cc(NC(=O)c2c(F)c(F)c(F)c(F)c2F)cc(C(=O)OC)c1`, the cell number change came out at 7.77%.
Turning to `Cc1cccc(C)c1NC(=S)NC(=O)c1ccc(Br)o1`, the cell number change was -52.2%. For the same compound, the half-maximal activity concentration (AC50) under setting [2] was 0.461 µM [falling, partial curve, poor fit]. In addition, the AC50 under setting [1] was 29.1 µM [falling, single point].
In the case of `Cc1cccc(NS(=O)(=O)c2ccc(-c3cnc(C4CC4)o3)cc2)c1C`, the cell number change is -9.14%. Besides, the concentration at half-maximal activity (AC50) under setting [2] is 3.26 µM [rising, single point]. The concentration at half-maximal activity (AC50) under setting [1] was 6.51 µM [rising, partial curve].
Turning to `O=C(Nc1ccccc1O)N1c2ccccc2Sc2ccccc21`, the cell number change was -0.525%.
On the same count and under the same terms, then `OC(COCc1ccc2c(c1)OCO2)CN1CCC(Cc2ccccc2)CC1` (stereo not given), with -136%.
On to `O=C(Nc1cccc(S(=O)(=O)N2CCCCC2)c1)c1cccs1`, for which the cell number change is 44.7%. In addition, the half-maximal activity concentration (AC50) under setting [2] is 6.51 µM [rising, full curve, poor fit].
In the case of `Cc1ccc(-c2nc(CS(=O)CC(=O)NCCN3CCCCCC3)c(C)o2)cc1` (stereo not given), the cell number change is -13.3%. Also, under setting [1], the AC50 was 0.146 µM [rising, full curve, poor fit].
As to `CC1CCC(N2CCNCC2)CC1` (stereo not given), the cell number change worked out at 9.05%. Further, under setting [1], the concentration at half-maximal activity (AC50) is 6.51 µM [falling, single point].
Turning to `Cc1cccc(N2CC(C(=O)Nc3nnc(SCCC4OCCO4)s3)CC2=O)c1` (stereo not given), the cell number change was 8.25%. Moreover, the half-maximal activity concentration (AC50) under setting [1] is 3.98 µM [rising, full curve, poor fit].
On to `CN1CCN(C(=O)CN(C)S(=O)(=O)c2cc(Cl)ccc2Cl)CC1`, for which the cell number change stood at 6.58%.
As for `CCc1ccc(-c2cc(C)no2)cc1S(=O)(=O)N1CCC(C)CC1`, the cell number change is -11.9%.
As to `CCc1nnc(NC(=O)CSc2nnc(CNc3ccc(OC)cc3)n2CC)s1`, the cell number change was determined as 16.8%. Also, the AC50 under setting [2] was 2.59 µM [rising, partial curve, poor fit]. In addition, the AC50 under setting [1] was 1.64 µM [rising, partial curve, poor fit].
For `Nc1c(N(CCC2=CCCCC2)C(=O)c2ccc([N+](=O)[O-])o2)c(=O)[nH]c(=O)n1Cc1ccccc1`, the cell number change is -32.5%. Further, the AC50 under setting [2] is 32.6 µM [falling, single point]. Also, under setting [1], the AC50 was 29.1 µM [falling, single point].
Take `O=C(NC1CCCC1)c1ccc(CSCc2ccccc2F)o1`: the cell number change was determined as 110%. In addition, the AC50 under setting [2] was 2.31 µM [rising, full curve]. In addition, the AC50 under setting [1] is 1.84 µM [rising, partial curve].
Take `CCCCCCN1C=CC=C/C1=C/C=C(C#N)C#N`: the cell number change is -65.4%. For the same compound, under setting [2], the AC50 is 29.1 µM [falling, single point]. In addition, the concentration at half-maximal activity (AC50) under setting [1] was 20.6 µM [falling, partial curve].
On to `Cc1ccccc1NS(=O)(=O)c1cc(C(=O)N2CCCC2)ccc1Cl`, for which the half-maximal activity concentration (AC50) under setting [1] was 0.103 µM [falling, full curve, poor fit].
Regarding `Cn1c(SCc2nc3ccccc3n2CCO)nc2ccccc21`, the cell number change is -24.2%. Also, the concentration at half-maximal activity (AC50) under setting [1] is 13 µM [falling, partial curve, poor fit].
On to `Cc1nn(-c2ccccc2)c2sc(C(=O)NNC(=O)COc3cccc4ccccc34)cc12`, for which the cell number change is -23.3%. The AC50 under setting [1] was 0.411 µM [falling, single point].
`Cc1c(NC(=O)COc2ccc3ccc(=O)oc3c2)c(=O)n(-c2ccccc2)n1C`: the cell number change was 2.81%.
Regarding `CCOc1ccccc1NC(=O)c1nc(S(=O)(=O)Cc2cccc(C)c2)ncc1Cl`, the cell number change was -9.63%. Moreover, the half-maximal activity concentration (AC50) under setting [2] was 2.06 µM [falling, partial curve].
Take `CCN1CCN(c2ccc(S(=O)(=O)N3CCCCC3)cc2NC(=O)COc2ccc(Cl)cc2)CC1`: the cell number change is 20.9%.
Take `C/C(=N\NC(=S)NCc1ccccc1)c1ccc2ccccc2c1`: the cell number change came out at 14.3%. In addition, under setting [1], the AC50 is 7.31 µM [rising, partial curve].
